Drawing on article PMC8899572, this text covers binding for 2 molecules.

The target of test [1] is T1, activating transcription 4 (ATF4) (rat (endogenous in H9c2)) (UniProt Q9ES19).
T1 sequence: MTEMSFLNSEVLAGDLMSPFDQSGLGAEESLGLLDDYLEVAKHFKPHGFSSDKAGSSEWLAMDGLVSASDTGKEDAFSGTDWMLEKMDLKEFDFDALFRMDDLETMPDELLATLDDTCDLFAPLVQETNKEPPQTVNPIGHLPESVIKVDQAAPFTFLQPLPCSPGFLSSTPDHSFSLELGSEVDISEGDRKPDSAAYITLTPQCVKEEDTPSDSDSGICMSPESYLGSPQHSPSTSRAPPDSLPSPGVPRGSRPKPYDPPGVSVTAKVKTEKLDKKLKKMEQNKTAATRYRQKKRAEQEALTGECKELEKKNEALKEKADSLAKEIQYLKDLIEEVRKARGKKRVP
Briefly: co-IP; nuclear lysates (0.5 mg) of H9c2 cells treated with AngII (1 uM) with or without TP (10 ug/L) for 1 h; primary antibody (5 ug) at 4 C overnight, Protein A/G magnetic beads, immunoblot; IP with anti-FoxP3 or with anti-ATF4. In general terms: A western blot detects proteins with antibodies after separation by electrophoresis.

For test [2], the target named is T1, activating transcription 4 (ATF4) (rat (endogenous in H9c2)). Briefly: co-IP; cytoplasmic (cytosolic) lysates (0.5 mg) of H9c2 cells treated with AngII (1 uM) with or without TP (10 ug/L) for 1 h; primary antibody (5 ug) at 4 C overnight, Protein A/G magnetic beads, immunoblot; IP with anti-FoxP3 or with anti-ATF4.
For test [3], the target named is Forkhead/winged helix transcriptional factor P3 (FoxP3) (rat (endogenous in H9c2)). Briefly: co-IP; nuclear lysates (0.5 mg) of H9c2 cells treated with AngII (1 uM) with or without TP (10 ug/L) for 1 h; primary antibody (5 ug) at 4 C overnight, Protein A/G magnetic beads, immunoblot; IP with anti-FoxP3 or with anti-ATF4.
For test [4] the target is unchanged. Briefly: co-IP; cytoplasmic (cytosolic) lysates (0.5 mg) of H9c2 cells treated with AngII (1 uM) with or without TP (10 ug/L) for 1 h; primary antibody (5 ug) at 4 C overnight, Protein A/G magnetic beads, immunoblot; IP with anti-FoxP3 or with anti-ATF4.

These are yes or no findings as the source states them, for the method shown. In cells and extracts the contact can be indirect. For some of these results: Binding can be weak; no strength is given.

With “Forkhead/winged helix transcriptional factor P3 (FoxP3) (rat (endogenous in H9c2))”, the figures for the binding result in test [1] and in test [2] were “binds” and “no binding (only in cytosolic lysates)”, respectively.

B1: activating transcription 4 (ATF4) (protein, UniProt Q9ES19 1-347)
chain: MTEMSFLNSEVLAGDLMSPFDQSGLGAEESLGLLDDYLEVAKHFKPHGFSSDKAGSSEWLAMDGLVSASDTGKEDAFSGTDWMLEKMDLKEFDFDALFRMDDLETMPDELLATLDDTCDLFAPLVQETNKEPPQTVNPIGHLPESVIKVDQAAPFTFLQPLPCSPGFLSSTPDHSFSLELGSEVDISEGDRKPDSAAYITLTPQCVKEEDTPSDSDSGICMSPESYLGSPQHSPSTSRAPPDSLPSPGVPRGSRPKPYDPPGVSVTAKVKTEKLDKKLKKMEQNKTAATRYRQKKRAEQEALTGECKELEKKNEALKEKADSLAKEIQYLKDLIEEVRKARGKKRVP
For the molecule B1, the binding result is given as “binds” in test [3] and “no binding (only in cytosolic lysates)” in test [4].
